In article PMC4385835:
Read-outs that look alike come from different tables or passages of the source. No constants are given. Whether binding was seen depends on the method and setting. In cells and extracts the contact can be indirect. Some results given as binding are weak or reduced against the parent protein; the word gives no strength.

Amino acid sequences for entries named in this document (tags omitted).
UniProt P05556: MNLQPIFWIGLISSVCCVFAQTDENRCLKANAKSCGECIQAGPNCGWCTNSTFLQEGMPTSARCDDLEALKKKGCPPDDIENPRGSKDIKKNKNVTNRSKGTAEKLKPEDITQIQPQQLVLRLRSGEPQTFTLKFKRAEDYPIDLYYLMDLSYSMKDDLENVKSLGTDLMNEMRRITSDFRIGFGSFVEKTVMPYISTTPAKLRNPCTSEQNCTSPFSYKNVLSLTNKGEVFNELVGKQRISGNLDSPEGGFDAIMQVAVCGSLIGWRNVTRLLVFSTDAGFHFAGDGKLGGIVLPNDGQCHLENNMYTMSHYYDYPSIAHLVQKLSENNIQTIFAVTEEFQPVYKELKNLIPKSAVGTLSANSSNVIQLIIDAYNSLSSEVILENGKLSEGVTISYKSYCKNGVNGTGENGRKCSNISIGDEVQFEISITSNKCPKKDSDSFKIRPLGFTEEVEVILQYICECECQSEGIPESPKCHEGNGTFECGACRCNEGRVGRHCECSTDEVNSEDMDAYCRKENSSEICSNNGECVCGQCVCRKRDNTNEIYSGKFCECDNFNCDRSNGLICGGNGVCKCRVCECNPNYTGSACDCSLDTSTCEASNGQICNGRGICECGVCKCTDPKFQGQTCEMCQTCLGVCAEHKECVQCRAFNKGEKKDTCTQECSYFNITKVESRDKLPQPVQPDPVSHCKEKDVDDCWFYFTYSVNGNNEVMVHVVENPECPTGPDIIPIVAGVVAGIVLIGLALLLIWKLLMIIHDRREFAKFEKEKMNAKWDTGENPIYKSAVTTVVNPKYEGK
UniProt P27487: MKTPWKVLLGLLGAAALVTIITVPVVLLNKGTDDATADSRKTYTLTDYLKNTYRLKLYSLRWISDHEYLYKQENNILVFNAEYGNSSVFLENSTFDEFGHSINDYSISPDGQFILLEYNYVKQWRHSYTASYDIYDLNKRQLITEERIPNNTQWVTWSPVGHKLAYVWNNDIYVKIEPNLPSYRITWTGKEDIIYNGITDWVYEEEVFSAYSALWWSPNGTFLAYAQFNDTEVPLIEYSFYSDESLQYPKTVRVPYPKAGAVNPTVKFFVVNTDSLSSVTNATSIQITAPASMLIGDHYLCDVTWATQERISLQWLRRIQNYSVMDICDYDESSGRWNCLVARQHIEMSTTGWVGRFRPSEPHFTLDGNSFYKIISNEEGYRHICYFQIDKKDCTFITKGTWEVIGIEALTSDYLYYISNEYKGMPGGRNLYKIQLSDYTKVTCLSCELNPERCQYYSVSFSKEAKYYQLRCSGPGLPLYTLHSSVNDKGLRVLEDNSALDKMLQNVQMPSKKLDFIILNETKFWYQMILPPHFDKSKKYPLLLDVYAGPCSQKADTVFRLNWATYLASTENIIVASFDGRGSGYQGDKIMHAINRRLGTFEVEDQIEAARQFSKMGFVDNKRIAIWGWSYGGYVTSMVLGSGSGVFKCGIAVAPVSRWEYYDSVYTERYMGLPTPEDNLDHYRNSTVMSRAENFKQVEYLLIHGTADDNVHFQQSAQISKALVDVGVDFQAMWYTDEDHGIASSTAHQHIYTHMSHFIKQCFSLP

Experiments:
[1] = biological target: T1, claudin-7 (human (endogenous in HT29 and SW948)) (UniProt O95471); test: co-IP; lysates of HT29 and SW948 wt and cld7 knock-down cells (HEPES buffer, 1% Lubrol or 1% TritonX-100, 4°C) precipitated with control IgG, anti-EpC, anti-cld7 or anti-Tspan8 and ProteinG-Sepharose; Western blot; precipitates also separated by sucrose density gradient (Fig.1E,1F,4D)
T1 sequence: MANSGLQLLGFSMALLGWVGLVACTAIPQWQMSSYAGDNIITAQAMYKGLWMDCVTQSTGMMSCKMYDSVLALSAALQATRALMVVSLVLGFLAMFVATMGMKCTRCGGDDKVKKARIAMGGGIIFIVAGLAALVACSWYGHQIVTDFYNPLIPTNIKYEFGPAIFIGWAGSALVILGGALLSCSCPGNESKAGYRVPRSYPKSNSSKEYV

[2] = biological target: T2, EpCAM (human (endogenous in HT29 and SW948)) (UniProt P16422); test: as above
T2 sequence: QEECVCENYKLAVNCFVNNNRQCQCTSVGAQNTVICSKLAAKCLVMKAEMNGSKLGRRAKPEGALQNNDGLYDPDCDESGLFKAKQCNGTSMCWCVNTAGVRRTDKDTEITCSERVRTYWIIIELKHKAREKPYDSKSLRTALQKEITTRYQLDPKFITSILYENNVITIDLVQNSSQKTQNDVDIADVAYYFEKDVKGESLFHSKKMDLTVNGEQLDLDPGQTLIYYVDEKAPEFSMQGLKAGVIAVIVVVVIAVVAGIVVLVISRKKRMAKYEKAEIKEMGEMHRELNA

[3] = biological target: T1, claudin-7 (human (endogenous in HT29 and SW948)); test: as above; remark: listed apart in the source
[4] = biological target: T3, Tspan8 (human (endogenous in HT29 and SW948)) (UniProt P19075); test: as above
T3 sequence: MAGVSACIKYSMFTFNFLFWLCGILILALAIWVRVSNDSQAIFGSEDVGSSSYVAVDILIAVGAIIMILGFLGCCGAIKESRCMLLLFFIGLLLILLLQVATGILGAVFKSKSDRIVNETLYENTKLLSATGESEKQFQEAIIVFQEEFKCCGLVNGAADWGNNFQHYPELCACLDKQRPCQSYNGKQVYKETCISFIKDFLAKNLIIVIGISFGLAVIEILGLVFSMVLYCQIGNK

[5] = biological target: CD29 (human (endogenous in HT29)) (UniProt P05556); test: co-IP; lysates of PMA-treated HT29 wt and holoclone-derived cells precipitated with control IgG, anti-α3 or anti-β1 and ProteinG-Sepharose; blotted with anti-cld7 and anti-p-cld7 (Fig.3F)

CD26 (from UniProt P27487 1-766) (enzyme)
binding [1]: binds
binding [2]: no binding

B1: EpCAM (protein, UniProt P16422 24-314)
chain: QEECVCENYKLAVNCFVNNNRQCQCTSVGAQNTVICSKLAAKCLVMKAEMNGSKLGRRAKPEGALQNNDGLYDPDCDESGLFKAKQCNGTSMCWCVNTAGVRRTDKDTEITCSERVRTYWIIIELKHKAREKPYDSKSLRTALQKEITTRYQLDPKFITSILYENNVITIDLVQNSSQKTQNDVDIADVAYYFEKDVKGESLFHSKKMDLTVNGEQLDLDPGQTLIYYVDEKAPEFSMQGLKAGVIAVIVVVVIAVVAGIVVLVISRKKRMAKYEKAEIKEMGEMHRELNA
binding [3]: binds
binding [4]: binds

B2: phosphorylated claudin-7 (protein, UniProt O95471 1-211)
chain: MANSGLQLLGFSMALLGWVGLVACTAIPQWQMSSYAGDNIITAQAMYKGLWMDCVTQSTGMMSCKMYDSVLALSAALQATRALMVVSLVLGFLAMFVATMGMKCTRCGGDDKVKKARIAMGGGIIFIVAGLAALVACSWYGHQIVTDFYNPLIPTNIKYEFGPAIFIGWAGSALVILGGALLSCSCPGNESKAGYRVPRSYPKSNSSKEYV
modifications: phosphorylated (detected with anti-p-cld7; site not given)
binding [5]: binds

B3: claudin-7 (protein, UniProt O95471 1-211)
chain: MANSGLQLLGFSMALLGWVGLVACTAIPQWQMSSYAGDNIITAQAMYKGLWMDCVTQSTGMMSCKMYDSVLALSAALQATRALMVVSLVLGFLAMFVATMGMKCTRCGGDDKVKKARIAMGGGIIFIVAGLAALVACSWYGHQIVTDFYNPLIPTNIKYEFGPAIFIGWAGSALVILGGALLSCSCPGNESKAGYRVPRSYPKSNSSKEYV
binding [5]: binds
